2 sequences from publication PMC6989399, “A drug library screen identifies Carbenoxolone as novel FOXO inhibitor that overcomes FOXO3-mediated chemoprotection in high-stage neuroblastoma” (Oncogene, 2019) can be followed below.

Sequences of proteins named here, by UniProt entry; tags and fusion partners are left off. A change or cut given only in a name is not applied to a line headed by its entry.
UniProt O43524: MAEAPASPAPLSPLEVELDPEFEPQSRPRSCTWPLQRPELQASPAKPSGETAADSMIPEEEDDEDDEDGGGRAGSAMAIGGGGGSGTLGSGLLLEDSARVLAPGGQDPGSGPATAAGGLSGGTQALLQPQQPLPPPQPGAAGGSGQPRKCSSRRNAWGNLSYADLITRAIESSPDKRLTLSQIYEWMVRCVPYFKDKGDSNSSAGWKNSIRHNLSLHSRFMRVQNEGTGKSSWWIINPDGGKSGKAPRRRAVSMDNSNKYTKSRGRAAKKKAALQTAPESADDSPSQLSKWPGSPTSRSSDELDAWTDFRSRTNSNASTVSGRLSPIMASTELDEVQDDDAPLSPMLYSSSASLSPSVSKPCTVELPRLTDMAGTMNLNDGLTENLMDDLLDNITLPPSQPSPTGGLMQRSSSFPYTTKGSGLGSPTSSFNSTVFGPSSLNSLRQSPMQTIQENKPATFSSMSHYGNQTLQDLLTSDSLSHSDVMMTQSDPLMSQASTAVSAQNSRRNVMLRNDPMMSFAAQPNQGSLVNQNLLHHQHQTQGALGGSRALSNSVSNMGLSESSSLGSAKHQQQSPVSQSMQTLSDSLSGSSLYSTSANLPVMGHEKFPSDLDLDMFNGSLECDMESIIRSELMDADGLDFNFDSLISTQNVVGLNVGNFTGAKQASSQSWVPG

The target of this data set is FOXO3(A3)ERtm (UniProt O43524). Nature of the data set: EMSA. To be noted: FAM-EMSA: 20 mM Tris pH 7.5, 100 mM NaCl, 1 mM EDTA, 5% glycerol, 30 min RT, 5% PAGE 0.5x TBE, protein in a lysate after overexpression. In general terms: Mobility shift assays separate free from complexed probe on a gel.

The exact form of at least one protein or probe is not confirmed. At least one result comes from cells or an extract, where the contact may be indirect. No signal at the amounts used counts as a negative. The comparison behind a weaker result is the experiment's own reference, which may not be listed here.

Turning to “AGCAAAGTTGGGGTTGATAATG (double strand) [FoxP3-mut-FAM]”, for the setting “30 ug whole-cell extract, 4OHT”, the binding result is listed as “no binding”.
Consider “AGCAAAGTTGTTTTTGATAATG (double strand) [FoxP3-FAM]”, for which the binding result was “binds” (30 ug whole-cell extract, 4OHT) and “binds more weakly” (cells treated with CBX, 120-155 uM needed (10% FCS)).
